PubChem BioAssay AID504774 | Drosophila RNAi Screening Center – 2011

Aim: 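Knock-downs that shift viability of MMS-exposed cells relative to untreated ones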 (primary screen)
Cells: Drosophila Kc167 cells
Reagents: long dsRNA against Drosophila genes, about 0.25 µg dsRNA per well
Time to read-out: about 6 days: 3 days knock-down, then 3 days with or without MMS
Conditions: methyl methanesulphonate 0.004% (w/v) for 3 days after knock-down
Measured: 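Viability in wells given MMS, read as ATP luminescence, normalised by quantiles plate by plate and averaged across replicates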
Scale: mean viability with MMS and viability with MMS: higher = more surviving cells after MMS
The screen tested about 23,000 reagents; this is a random part of those with a known target gene and a result. 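Values are quantile-normalised luminescence on an arbitrary scale; higher means more cells surviving MMS.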 A plus sign joins genes that one reagent is predicted to hit.

Gene	DRSC id	mean viability with MMS	viability with MMS, replicate 1	viability with MMS, replicate 2
Kah (Kahuli)	DRSC07887	3.59e6	3.92e6	4.21e6
Kah (Kahuli)	DRSC08515	3.59e6	4.06e6	4.05e6
CG14369	DRSC14831	3.69e6	4.10e6	4.29e6
CG15506	DRSC15047	3.47e6	3.91e6	3.93e6
asRNA:CR31084 (antisense RNA:CR31084)	DRSC21649	3.48e6	4.00e6	3.93e6
CG1288	DRSC12538	3.41e6	3.91e6	3.85e6
MED31 (Mediator complex subunit 31)	DRSC12142	3.16e6	3.65e6	3.62e6
CG17544	DRSC02624	3.40e6	3.70e6	3.96e6
vas (retired record)	DRSC22007	3.67e6	4.15e6	4.10e6
CG2224	DRSC15429	3.57e6	4.09e6	3.99e6
CG4101	DRSC10400	3.57e6	4.05e6	4.06e6
CG4882	DRSC04495	3.49e6	3.96e6	3.94e6
didum (dilute class unconventional myosin)	DRSC07603	3.57e6	4.04e6	4.03e6
CG33271	DRSC10583	3.45e6	3.81e6	4.00e6
CG33111	DRSC14208	3.74e6	4.13e6	4.34e6
CG33111	DRSC14444	3.76e6	4.19e6	4.32e6
CG13193	DRSC06318	3.50e6	3.91e6	3.99e6
MED27 (Mediator complex subunit 27)	DRSC12205	3.27e6	3.79e6	3.70e6
CG4456 + Hsp22	DRSC11187	3.64e6	4.18e6	4.04e6
CG4456 + Hsp22	DRSC11192	3.64e6	4.06e6	4.20e6
CG30485	DRSC06376	3.60e6	3.98e6	4.13e6
RIOK1 (RIO kinase 1)	DRSC09853	3.65e6	4.10e6	4.17e6
Obp50e (Odorant-binding protein 50e)	DRSC06434	3.53e6	3.94e6	3.91e6
CG14273	DRSC02377	3.60e6	4.01e6	4.15e6
CG17996 + Tsen2	DRSC02650	3.44e6	3.84e6	3.97e6
Rab40	DRSC19820	3.44e6	3.78e6	4.02e6
CG40486	DRSC20619	3.49e6	3.98e6	3.93e6
bou (boudin)	DRSC17924	3.50e6	4.03e6	3.91e6

Targets listed so far whose target name starts with K or k:
Gene	DRSC id	mean viability with MMS	viability with MMS, replicate 1	viability with MMS, replicate 2
Kah (Kahuli)	DRSC07887	3.59e6	3.92e6	4.21e6
Kah (Kahuli)	DRSC08515	3.59e6	4.06e6	4.05e6
